# In article PMC7819943, “Rice protein-binding microarrays: a tool to detect cis-acting elements near promoter regions in rice”:
# This is one part of the list.
# Target: T1, OsSMF1 (Oryza sativa, UniProt Q6ZLB0 1-436)
# T1 sequence: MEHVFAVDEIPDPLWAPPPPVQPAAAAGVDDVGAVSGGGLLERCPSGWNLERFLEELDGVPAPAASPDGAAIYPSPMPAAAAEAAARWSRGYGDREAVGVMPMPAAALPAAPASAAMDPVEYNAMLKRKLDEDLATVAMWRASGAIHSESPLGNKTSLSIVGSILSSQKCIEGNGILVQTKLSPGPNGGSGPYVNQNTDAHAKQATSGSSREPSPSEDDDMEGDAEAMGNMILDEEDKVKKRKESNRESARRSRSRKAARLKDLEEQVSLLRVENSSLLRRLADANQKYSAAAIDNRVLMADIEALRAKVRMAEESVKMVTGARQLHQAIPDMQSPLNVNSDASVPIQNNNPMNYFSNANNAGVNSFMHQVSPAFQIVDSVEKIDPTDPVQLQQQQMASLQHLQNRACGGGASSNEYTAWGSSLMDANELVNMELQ
# Test: protein-binding microarray (RPBM); PBS, 2% BSA, 51.3 ng/ul salmon testes DNA, 50 uM zinc acetate, 200 nM TF, 25 C, 1 h; high values mean tight binding
# Details: protein: recombinant; tags: N-terminal polyhistidine and DsRed monomer fusion (pET32a); chain copies: 2; label: CyDye5-dUTP incorporated in the synthesized complementary strand; 3' TTTTT single-stranded linker to array surface; dsDNA, one strand shown
# Summary of the method: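 For the binding signal, per-feature fluorescence intensity was read in arbitrary units on an Axon 4000B scanner. Before scanning, a 2% BSA-blocked custom Agilent array made double-stranded with Cy5-dUTP was washed after 1 h at 25 °C with 200 nM protein and 50 µM zinc acetate. The proteins were Ni–NTA-purified transcription factors with N-terminal polyhistidine and DsRed fusions, expressed in E. coli BL21-CodonPlus.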
row,Sequence,binding signal
1,GTGGCCCGCATGCCAAATTGTGTCACGCAAGCCGTAATCCCGGAGTCACCTAGTGCAG,3620 fluorescence intensity (a.u.)
2,CGGCAACAGCGGTGACAACGTGACGACGGGTGACGAGGCGCGGAGTCACCTAGTGCAG,5320 fluorescence intensity (a.u.)
3,GAGGCGTGCGGGATGGTGTGGGTTAATCTGGGATAAGGATCGGAGTCACCTAGTGCAG,3900 fluorescence intensity (a.u.)
4,TAGTCTTATGATTACCCACCGCCGCACGTGGCCACTTGCTCGGAGTCACCTAGTGCAG,4250 fluorescence intensity (a.u.)
5,TAGTGTCTAGTACTAGTTTCTTGATGATGTGGAGTTTATGCGGAGTCACCTAGTGCAG,6010 fluorescence intensity (a.u.)
6,CTCCTCTAACTAACATAACTTCCCACTGACGTGGTCATTTCGGAGTCACCTAGTGCAG,12900 fluorescence intensity (a.u.)
7,TCTCGTCGTCGACCTCCTCCCGCTGCTCCCGTTGCGGCGGCGGAGTCACCTAGTGCAG,3450 fluorescence intensity (a.u.)
8,AGTAAGTATGTCAGCCAAGTCTCCATGTAAATGTGAATCACGGAGTCACCTAGTGCAG,3670 fluorescence intensity (a.u.)
9,CATTATACTGGAGCATCATTGGACACGTGACAGATTTTGACGGAGTCACCTAGTGCAG,3400 fluorescence intensity (a.u.)
10,CGCCGCCTCCGCCTCGCACAGCCGCCATCCCCGCCTCCGCCGGAGTCACCTAGTGCAG,3260 fluorescence intensity (a.u.)
11,GTAGGCTTTGGTAAAATTCTCACGTCAGGAAGGAACAGCTCGGAGTCACCTAGTGCAG,5060 fluorescence intensity (a.u.)
12,AGGAGGAGGAGGAAGAGCACGACATCGCCATCTCGGCGTCCGGAGTCACCTAGTGCAG,3180 fluorescence intensity (a.u.)
13,CTCGGCGGTCGGGTCCCTTGTCCACGCACGCCTGCGCAGTCGGAGTCACCTAGTGCAG,5060 fluorescence intensity (a.u.)
14,GCCACGCACCGCGCCGCGCGCGCGCACGCACGCTCCCCTTCGGAGTCACCTAGTGCAG,3420 fluorescence intensity (a.u.)
15,TCTTCCAACCGGCCAACGCGTCAACCCTAGCGATCATCCACGGAGTCACCTAGTGCAG,3480 fluorescence intensity (a.u.)
16,TCCAAGGATGATTTCAAGCCAAAACAAATATTTGAAGTATCGGAGTCACCTAGTGCAG,3730 fluorescence intensity (a.u.)
17,GCTTTTATAGATTCTCGGAAACTAACTACCAACCAGCTGCCGGAGTCACCTAGTGCAG,24300 fluorescence intensity (a.u.)
18,ATCAACACATAACTATATGTCTAGGTGTCAGTTTAATAACCGGAGTCACCTAGTGCAG,3920 fluorescence intensity (a.u.)
19,CAGGCCGCCGTGGCTTTCCTTGGAGGGTTCCCTGGTGGTGCGGAGTCACCTAGTGCAG,3340 fluorescence intensity (a.u.)
20,CTGCTTCTGCTGCCGCTTGGGTTGGGCCACGCGAGCGGCTCGGAGTCACCTAGTGCAG,3180 fluorescence intensity (a.u.)
21,ATAAAGGCGAGATCTAGAAGCGACGACGATGACGGGTCGACGGAGTCACCTAGTGCAG,3860 fluorescence intensity (a.u.)

row,Sequence,binding signal
1,TGTGTTAGATAAGTGTGTCCGAACATAATTAATTTCTTTCCGGAGTCACCTAGTGCAG,26100 fluorescence intensity (a.u.)
2,TTCGCTTTGTCCTCACGCACACACGCCTCATGCGTCCGTGCGGAGTCACCTAGTGCAG,3410 fluorescence intensity (a.u.)
3,CTCACGACGGTGCGGCACCAAGAAAGCCAGTGACGTCCCGCGGAGTCACCTAGTGCAG,3560 fluorescence intensity (a.u.)
4,TATATATGGCCTTTGGTCTGCATAGCTGTCCACGTCATCACGGAGTCACCTAGTGCAG,42200 fluorescence intensity (a.u.)
5,CCTCGCGGCACTCCCTCCTCTCTCGCAGACTCGCAGTAGTCGGAGTCACCTAGTGCAG,4480 fluorescence intensity (a.u.)
6,GCCTCAGCGTGCGTGCGCCCTAGCCAGTCGATCTCCCCGTCGGAGTCACCTAGTGCAG,6160 fluorescence intensity (a.u.)
7,ATTAATATCTAGTCCCACCTGTCATAGACACACCGCGTCTCGGAGTCACCTAGTGCAG,4200 fluorescence intensity (a.u.)
8,GACAGTAGCAGCAGTGGACACGTCGATTTCGCAATTCGTGCGGAGTCACCTAGTGCAG,5760 fluorescence intensity (a.u.)
9,CGCACACATGAGCTCATGATGTGAACGTGATGATGGTGCGCGGAGTCACCTAGTGCAG,48500 fluorescence intensity (a.u.)
10,GTACTCCACAACAACTAAGCAGAAAGCGTACACATGAAAGCGGAGTCACCTAGTGCAG,9390 fluorescence intensity (a.u.)
11,AGAGGAAGAAATGACTCATCTGAATCTGAGAGTCGTGTCACGGAGTCACCTAGTGCAG,4960 fluorescence intensity (a.u.)
12,GGCCGTGACCAAGCGCTGCATCTTGCACACCTTCCGGTCCCGGAGTCACCTAGTGCAG,3650 fluorescence intensity (a.u.)
13,AATGCGTGACTCTCCATTCTTTCACACAAGATTGGCTACACGGAGTCACCTAGTGCAG,3440 fluorescence intensity (a.u.)
14,CTCGCTGACGTAAACAGGTGACAGCCCGTGCAAGTGCAACCGGAGTCACCTAGTGCAG,6000 fluorescence intensity (a.u.)
15,AAAAGCCCACCACCACCCAACCCGCCCAACGCCACGTCACCGGAGTCACCTAGTGCAG,24800 fluorescence intensity (a.u.)
16,GGATGCACGTCTTGAGTTTCGAGCTGACTTTGACTCAACGCGGAGTCACCTAGTGCAG,4620 fluorescence intensity (a.u.)
17,GTTTTCTCTTATGACTGTGGATTACGACGTGCACGTTTTCCGGAGTCACCTAGTGCAG,4490 fluorescence intensity (a.u.)
18,ATCTACACATGCACAAATGTTGCAGCTGATATATGGCTTACGGAGTCACCTAGTGCAG,4070 fluorescence intensity (a.u.)
19,AATAAAGATAAACCCACCAACGTGGAGGAGGCGTAGGCAGCGGAGTCACCTAGTGCAG,5860 fluorescence intensity (a.u.)
20,GAGCTTAAGGTAGGGAGACCTGAGCTGAGAAGAGAAAGTCCGGAGTCACCTAGTGCAG,3280 fluorescence intensity (a.u.)
21,ACGGATTATCCGCCAAACATTACATCGGATAATCCGATTACGGAGTCACCTAGTGCAG,15500 fluorescence intensity (a.u.)

# Some of the entries so far, tab-delimited:
row	Sequence	binding signal
12	GGCCGTGACCAAGCGCTGCATCTTGCACACCTTCCGGTCCCGGAGTCACCTAGTGCAG	3650 fluorescence intensity (a.u.)
13	AATGCGTGACTCTCCATTCTTTCACACAAGATTGGCTACACGGAGTCACCTAGTGCAG	3440 fluorescence intensity (a.u.)
14	CTCGCTGACGTAAACAGGTGACAGCCCGTGCAAGTGCAACCGGAGTCACCTAGTGCAG	6000 fluorescence intensity (a.u.)
